From US8134006B2, “Dialkylphenyl compounds having β2 adrenergic receptor agonist and muscarinic receptor antagonist activity” (Theravance, Inc., priority 2006, dated 2012)
Some of these results come from one statement about several compounds together.

Tested on: acetylcholine or histamine bronchoconstriction
Experiment: Plethysmograph guinea pig assay for bronchoprotective efficacy and duration
Conditions: 100 μg/mL, inhalation

OCc1cc(C(O)CNCCCCCCOCCCCc2ccccc2)ccc1O (stereo not shown) [salmeterol]
duration of significant bronchoprotection: at least 24 hours
